Percent effect of library compounds

Sequences of proteins named here, by UniProt entry; tags and fusion partners are left off. Residues count along the entry.
UniProt A4I591, 1-473: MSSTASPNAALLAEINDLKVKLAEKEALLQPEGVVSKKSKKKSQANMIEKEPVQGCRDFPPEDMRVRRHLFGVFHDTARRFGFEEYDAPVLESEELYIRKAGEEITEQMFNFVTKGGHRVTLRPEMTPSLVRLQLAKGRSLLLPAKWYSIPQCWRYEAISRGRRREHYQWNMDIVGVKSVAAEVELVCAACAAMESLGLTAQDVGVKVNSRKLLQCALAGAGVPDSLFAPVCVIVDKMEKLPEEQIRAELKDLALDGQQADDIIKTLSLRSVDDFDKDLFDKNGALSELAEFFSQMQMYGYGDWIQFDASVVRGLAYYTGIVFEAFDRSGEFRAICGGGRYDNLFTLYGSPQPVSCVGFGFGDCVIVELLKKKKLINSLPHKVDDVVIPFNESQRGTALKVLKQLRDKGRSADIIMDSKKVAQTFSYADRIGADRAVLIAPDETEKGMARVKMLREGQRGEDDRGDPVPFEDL
UniProt I6X8D2, whole entry: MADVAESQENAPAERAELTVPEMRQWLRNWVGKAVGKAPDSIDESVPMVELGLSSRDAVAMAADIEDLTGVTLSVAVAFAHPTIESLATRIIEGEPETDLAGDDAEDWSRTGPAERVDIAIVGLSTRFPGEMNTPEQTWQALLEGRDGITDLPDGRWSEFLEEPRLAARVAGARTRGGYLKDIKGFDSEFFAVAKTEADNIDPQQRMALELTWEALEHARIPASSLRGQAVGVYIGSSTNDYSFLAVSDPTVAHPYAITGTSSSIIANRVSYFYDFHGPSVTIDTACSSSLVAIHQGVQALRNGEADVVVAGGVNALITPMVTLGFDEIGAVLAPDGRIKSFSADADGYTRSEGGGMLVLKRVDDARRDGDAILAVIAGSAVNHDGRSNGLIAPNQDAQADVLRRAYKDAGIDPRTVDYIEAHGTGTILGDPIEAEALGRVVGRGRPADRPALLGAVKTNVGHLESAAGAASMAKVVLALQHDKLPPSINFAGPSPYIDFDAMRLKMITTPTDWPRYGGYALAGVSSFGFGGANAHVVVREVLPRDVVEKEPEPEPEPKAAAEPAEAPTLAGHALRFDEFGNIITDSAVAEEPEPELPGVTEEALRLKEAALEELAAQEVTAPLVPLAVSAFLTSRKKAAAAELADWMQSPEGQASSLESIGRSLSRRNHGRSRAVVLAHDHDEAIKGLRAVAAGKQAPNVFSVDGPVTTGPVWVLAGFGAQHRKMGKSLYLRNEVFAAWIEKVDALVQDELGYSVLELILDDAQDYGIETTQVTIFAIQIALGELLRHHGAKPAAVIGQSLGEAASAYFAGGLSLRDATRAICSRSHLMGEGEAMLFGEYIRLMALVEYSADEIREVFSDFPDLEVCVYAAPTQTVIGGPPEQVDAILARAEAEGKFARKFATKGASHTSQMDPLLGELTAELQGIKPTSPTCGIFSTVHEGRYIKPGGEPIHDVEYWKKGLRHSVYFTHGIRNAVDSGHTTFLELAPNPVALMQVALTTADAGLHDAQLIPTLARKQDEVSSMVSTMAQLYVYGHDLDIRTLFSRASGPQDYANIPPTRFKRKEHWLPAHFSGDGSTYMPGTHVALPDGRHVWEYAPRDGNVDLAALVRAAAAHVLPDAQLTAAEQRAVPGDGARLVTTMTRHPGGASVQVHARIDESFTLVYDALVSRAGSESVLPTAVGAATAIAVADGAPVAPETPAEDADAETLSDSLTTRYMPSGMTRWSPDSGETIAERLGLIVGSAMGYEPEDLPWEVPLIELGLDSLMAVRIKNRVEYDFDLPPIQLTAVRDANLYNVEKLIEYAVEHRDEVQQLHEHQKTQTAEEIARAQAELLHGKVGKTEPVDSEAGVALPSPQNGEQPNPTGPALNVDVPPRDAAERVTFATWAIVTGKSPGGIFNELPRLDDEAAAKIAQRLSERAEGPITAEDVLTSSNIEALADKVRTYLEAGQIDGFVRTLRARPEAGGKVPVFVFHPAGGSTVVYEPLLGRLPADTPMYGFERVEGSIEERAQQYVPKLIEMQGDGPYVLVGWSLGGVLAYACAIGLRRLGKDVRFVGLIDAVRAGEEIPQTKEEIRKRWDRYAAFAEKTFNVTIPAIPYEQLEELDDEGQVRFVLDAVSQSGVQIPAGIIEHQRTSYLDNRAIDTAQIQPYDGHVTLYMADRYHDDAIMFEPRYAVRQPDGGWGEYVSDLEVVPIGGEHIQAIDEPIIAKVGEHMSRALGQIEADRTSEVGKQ

Leishmania in macrophages: 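Cell assay of Leishmania donovani living inside macrophages; the read-out is not stated. Compounds at 30 µM. Direction is inferred from retests: higher values go with stronger inhibition. About 69,000 compounds were tested under these conditions; 1.5% (about 1,000) showed 50% or more at least once.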
LiHisRS: 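Histidine-tRNA ligase, Leishmania infantum (UniProt A4I591). Enzyme assay of histidyl-tRNA synthetase; the read-out is not stated. Concentration: 30 µM. Direction is inferred from retests: higher values go with stronger inhibition. The assay is labelled LdHisRS but filed under L. infantum. About 69,000 compounds were tested under these conditions; 0.6% (about 410) showed 50% or more at least once.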
Pks13 thioesterase: 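Enzyme assay of the thioesterase domain of polyketide synthase 13; the read-out is not stated. Target: Polyketide synthase Pks13, Mycobacterium tuberculosis (UniProt I6X8D2). Compounds at 30 µM. The record gives no direction; the compounds picked for IC50 retests had high values, so higher reads as stronger inhibition. About 67,000 compounds were tested under these conditions; 0.46% (about 300) showed 50% or more at least once.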

Each number is a percent effect as filed. The controls that fix the scale are not given in the record; negative values are as filed. The compounds are a random part of those screened. Two or more numbers in one place are separate tests of the same structure; such repeats can differ widely.

O=C(c1ccc(-c2ccc(O)nc2)s1)N1CCSCC1 gave Leishmania in macrophages: 42.81%; LiHisRS: 12.07%; Pks13 thioesterase: 28.23%.
CN(Cc1ccncc1)C(=O)NCc1cn(-c2ccccc2)nn1 gave Leishmania in macrophages: -0.9634%; LiHisRS: 14.89%; Pks13 thioesterase: -25.71%.
CCCc1nccn1-c1ccc(C(O)CN2CCOCC2)cc1 (configuration not stated) gave Leishmania in macrophages: -12.62%; LiHisRS: 12.5%; Pks13 thioesterase: 23.65%.
Cn1ncc2c(N3CC[C@H](O)C3)nc(-c3ccncc3)nc21 gave Leishmania in macrophages: -2.333%; LiHisRS: 28.57%; Pks13 thioesterase: -12.97%.
CN(C)CC1(O)CCCN(C(=O)c2ccccc2-n2cccn2)C1 (configuration not stated) gave Leishmania in macrophages: 10.72%; LiHisRS: 7.527%; Pks13 thioesterase: -21.59%.
O=C(CN1C=Nc2ccccc2S1(=O)=O)NCCCc1ccccc1 gave Leishmania in macrophages: 31.04%; LiHisRS: -27.19%; Pks13 thioesterase: -19.67%.
O=C(O)C(F)(F)F.[H][C@@]12CN(CC3CC3)C[C@]1([H])C(=O)N(c1ccsc1)C2 gave Leishmania in macrophages: -30.19%.
Cl.Nc1nc(Nc2ccccc2)cc(N2CCNCC2)n1 gave Leishmania in macrophages: 2.421%.
CCn1cc(S(=O)(=O)N(CCc2ccccc2)Cc2ccn(C)n2)cn1 gave Leishmania in macrophages: 13.31%; LiHisRS: 3.448%; Pks13 thioesterase: -14.68%.
Fc1ccc(CNCC2Cn3nncc3CO2)cc1.O=C(O)C(F)(F)F (configuration not stated) gave Leishmania in macrophages: 3.529%.
COc1ccccc1C(CNC(=O)NCc1cc[nH]n1)N1CCCC1 (configuration not stated) gave Leishmania in macrophages: 4.364%; LiHisRS: 1.639%; Pks13 thioesterase: -1.086%.
Cc1noc(C)c1CN1CCN(Cc2nccn2C)C(C)C1 (configuration not stated) gave Leishmania in macrophages: 36.47%; LiHisRS: 7.865%; Pks13 thioesterase: -22.19%.
COCCOc1ccccc1C(=O)N(C)Cc1ncc(C)c(OC)c1C gave Leishmania in macrophages: -3.201%; LiHisRS: 9.917%; Pks13 thioesterase: -2.438%.
CC(NC(=O)Nc1ccc(OC2CCCC2)cc1)c1nc[nH]n1 (configuration not stated) gave Leishmania in macrophages: 15.76%; LiHisRS: 1.639%; Pks13 thioesterase: 9.906%.
CNC(=O)NC(=O)CN1CCN(CC2CC2)c2ccccc21 gave Leishmania in macrophages: 10.86%; LiHisRS: 31.25%; Pks13 thioesterase: -9.122%.
c1ccc(CNC[C@H]2COCc3nc4cccnc4n32)cc1 gave Leishmania in macrophages: -9.396%; LiHisRS: -16.67%; Pks13 thioesterase: 15.59%.
CN(C)CC1CN(Cc2ccsc2)Cc2nccn2C1.O=C(O)C(F)(F)F.O=C(O)C(F)(F)F (configuration not stated) gave Leishmania in macrophages: 20.52%.
Fc1cnc(N2CC[C@@H]3O[C@@H](COCc4cccnc4)CC[C@@H]32)nc1 gave LiHisRS: -7.895%; Pks13 thioesterase: 23.04%.
COC[C@@H]1CCC[C@@]12CN(Cc1ccc(C)s1)CCO2.O=C(O)C(F)(F)F gave Leishmania in macrophages: -2.328%.
Cc1nc2cc(C3CCOCC3)nn2c(NCC2COCCO2)c1C (configuration not stated) gave Leishmania in macrophages: -6.432%; LiHisRS: 6.993%; Pks13 thioesterase: -7.459%.
CCN(CC)C(CNCc1ccc(O)cc1)c1ccco1 (configuration not stated) gave Leishmania in macrophages: 7.299%; LiHisRS: -1.613%; Pks13 thioesterase: -12.9%.
COc1ccc(CNC(C)Cn2cccn2)cc1OC (configuration not stated) gave Leishmania in macrophages: 18.16%; LiHisRS: 6.957%; Pks13 thioesterase: -13.24%.
CCc1n[nH]c(C2CN(C(=O)c3cnc[nH]3)CCO2)n1 (configuration not stated) gave Leishmania in macrophages: 16.53%; LiHisRS: -42.67%; Pks13 thioesterase: -18.23%.
Cc1ccc(OC2CCN(S(=O)(=O)N(C)C)CC2)nc1 gave Leishmania in macrophages: -18.21%; LiHisRS: 3.529%; Pks13 thioesterase: 5.12%.
CCn1c(CN2CCN(CCOC)CC2)nc2c(F)cccc21 gave Leishmania in macrophages: 28.33%; LiHisRS: 26.79%; Pks13 thioesterase: -21.92%.
Cn1cc(CNC2CC3(CCN(CC4CC4)CC3)c3ccccc32)cn1 (configuration not stated) gave LiHisRS: 10.34%; Pks13 thioesterase: 2.523%.
O=C(c1ccccn1)N1CCN(c2ccc(-n3cccc3)nn2)CC1 gave Leishmania in macrophages: 20.8%; LiHisRS: 16.24%; Pks13 thioesterase: -26.83%.
N#CCCN(CC1CCOC1)S(=O)(=O)c1c(F)cccc1Cl (configuration not stated) gave Leishmania in macrophages: 25.24%; LiHisRS: 6.667%; Pks13 thioesterase: -27.77%.
CC(C)(C)c1cnc(CN2C(=O)CC3(CCSC3)C2=O)o1 (configuration not stated) gave Leishmania in macrophages: 9.741%; LiHisRS: 15.52%; Pks13 thioesterase: -44.11%.
O=S(=O)(c1c(F)cccc1F)N1CCCC1c1nnc2n1CCCCC2 (configuration not stated) gave Leishmania in macrophages: 2.528% and 31.18%; LiHisRS: 15.38%; Pks13 thioesterase: -1.353%.
[H][C@]12CCN(C(=O)c3cccn3C)[C@@]1([H])CCC(=O)N2CC1CC1 gave Leishmania in macrophages: 1.41% and 13.79%.

Some entries from above, unchanged:

{"compound": "O=C(c1ccccn1)N1CCN(c2ccc(-n3cccc3)nn2)CC1", "Leishmania in macrophages": 20.8, "LiHisRS": 16.24, "Pks13 thioesterase": -26.83}
{"compound": "Cn1cc(CNC2CC3(CCN(CC4CC4)CC3)c3ccccc32)cn1", "stereo": "configuration not stated", "LiHisRS": 10.34, "Pks13 thioesterase": 2.523}

From ChEMBL document CHEMBL3988442, “University of Dundee, Small-Polar-MMV Screening Library” (2021).